This passage reports binding signal results from paper PMC7819943, “Rice protein-binding microarrays: a tool to detect cis-acting elements near promoter regions in rice”.

Sequences of proteins named here, by UniProt entry; tags and fusion partners are left off.
UniProt Q0JBA9, entry or part of it: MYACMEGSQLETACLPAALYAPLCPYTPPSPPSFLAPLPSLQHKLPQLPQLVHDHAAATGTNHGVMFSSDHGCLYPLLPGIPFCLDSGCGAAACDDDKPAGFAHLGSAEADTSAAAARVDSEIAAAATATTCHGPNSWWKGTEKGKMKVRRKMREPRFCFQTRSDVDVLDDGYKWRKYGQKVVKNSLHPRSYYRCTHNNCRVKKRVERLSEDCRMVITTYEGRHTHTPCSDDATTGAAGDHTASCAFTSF

This is one part of the list.

This assay addresses OsWRKY34 (Oryza sativa, UniProt Q0JBA9 1-250). The assay can be described thus: protein-binding microarray (RPBM); PBS, 2% BSA, 51.3 ng/ul salmon testes DNA, 50 uM zinc acetate, 200 nM TF, 25 C, 1 h; high values mean tight binding. Conditions: protein: recombinant; tags: N-terminal polyhistidine and DsRed monomer fusion (pET32a); label: CyDye5-dUTP incorporated in the synthesized complementary strand; 3' TTTTT single-stranded linker to array surface; dsDNA, one strand shown. In outline:
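Using Ni–NTA, transcription factors fused N-terminally to polyhistidine and DsRed were purified after expression in E. coli BL21-CodonPlus. These were incubated at 200 nM with a blocked, double-stranded custom Agilent array for 1 h at 25 °C in a buffer containing 50 µM zinc acetate, and the array was washed. The binding signal is per-feature fluorescence intensity (arbitrary units) on an Axon 4000B scanner.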
For the sequence “GTGTATCTAGCTCATCTCTAACCGTTCCAATCGTACCCTGCGGAGTCACCTAGTGCAG”, the binding signal is 8030 fluorescence intensity (a.u.). Consider “AAGTTGAATTTGGTCTTGCACGTTTTTGGAGTTTTATATTCGGAGTCACCTAGTGCAG”, for which the binding signal was 8040 fluorescence intensity (a.u.).

Regarding “TTCACCGTCGCGTCGTCCACCATTTGCGTGCCTGATTAATCGGAGTCACCTAGTGCAG”, the binding signal was 11300 fluorescence intensity (a.u.).

Turning to “ATCCGTCTTTTGCATTTGTTGTGTTCGATCTTATAACTGCCGGAGTCACCTAGTGCAG”, the binding signal is 14200 fluorescence intensity (a.u.). Next, “CCACCTATCCACGTCAACTCCCTCCGTCCCTCGCCCGCGCCGGAGTCACCTAGTGCAG”: 8660 fluorescence intensity (a.u.); “CATATCATAATACATGTGCTTTACTATAATTTTAACCATACGGAGTCACCTAGTGCAG”: 8880 fluorescence intensity (a.u.); “TCTCGAAATCGATTCTCTGCTCGCATCCTGCCCTCATCCACGGAGTCACCTAGTGCAG”: 11100 fluorescence intensity (a.u.).

On to “TTCCATTAGATTGCTCCAATCCCTTTTCTTTTCACCTTTTCGGAGTCACCTAGTGCAG”, for which the binding signal is 9960 fluorescence intensity (a.u.). On to “GCATGGGCTTTCTTTTCTCGAAGGGATGGGCTTAGTTGCTCGGAGTCACCTAGTGCAG”, for which the binding signal was 8030 fluorescence intensity (a.u.). Regarding “TCGCGCTTCAACCCTAGTATTTCCGTCTCCCGCGCCACTGCGGAGTCACCTAGTGCAG”, the binding signal was 8260 fluorescence intensity (a.u.). Consider “GCCGCCGCCACCACCACCACCACTGCCGCCACCGCCACCTCGGAGTCACCTAGTGCAG”, for which the binding signal was 9900 fluorescence intensity (a.u.).

In the case of “ACTCGTGCGCCACAGCGCTCTCACACGCGCGCCACACTCACGGAGTCACCTAGTGCAG”, the binding signal is 9090 fluorescence intensity (a.u.). As to “GGCTTTGTCTCAGTAGCTCTGTATTTGTGCTGTAAAACTCCGGAGTCACCTAGTGCAG”, the binding signal was 10400 fluorescence intensity (a.u.). Consider “AGCACAGAGCTGGCGCCGACTTCTTCTTTTCCACGGCGCCCGGAGTCACCTAGTGCAG”, for which the binding signal was 11100 fluorescence intensity (a.u.). Then “GTTTATCAGAATCTGGAGTTTTGGACACAAGGGGTGGTGGCGGAGTCACCTAGTGCAG”, with 9000 fluorescence intensity (a.u.); and “TTTTGCCACGCTTCATCCTCTCATCTTTTCGCTTATGCTTCGGAGTCACCTAGTGCAG”, with 9410 fluorescence intensity (a.u.). On to “TGATGGTGGTGGTGGTGGTCGTCGTCGTCGGCTGTTTTGCCGGAGTCACCTAGTGCAG”, for which the binding signal was 14900 fluorescence intensity (a.u.). For the sequence “CGCTCGCCCGCCACCGCCGCCGCCCTCGCCTGGATCTACCCGGAGTCACCTAGTGCAG”, the binding signal is 12700 fluorescence intensity (a.u.).

With “CTTTATTGTCTGTTACCTGGTTAGTTGGTCATGTAAACTCCGGAGTCACCTAGTGCAG”, the binding signal is 9320 fluorescence intensity (a.u.). “TCCACTCCACTCCAGTCCACAGCACTAACCCATCGGTCCCCGGAGTCACCTAGTGCAG”: the binding signal was 8800 fluorescence intensity (a.u.). Turning to “GCCGTCTCGCGGATCATCGTCCCCTACTCCGACCAGCCATCGGAGTCACCTAGTGCAG”, the binding signal is 9460 fluorescence intensity (a.u.). On to “GTTAATGCTGGACTCTTTCGTCTTTTTAATCCATATTAATCGGAGTCACCTAGTGCAG”, for which the binding signal was 9310 fluorescence intensity (a.u.). Consider “TCCTGACCCACCGCGCGCCCCACCGACCCGGCCTTCCTCGCGGAGTCACCTAGTGCAG”, for which the binding signal was 10400 fluorescence intensity (a.u.).

As for “GAATGGATTGGTGCTACCTCTCATGGCCTTTTCAACTTTCCGGAGTCACCTAGTGCAG”, the binding signal was 9710 fluorescence intensity (a.u.).

Regarding “TCCTCCTTTTTAACTTTGGGCCGAATTCTTCTTCTCTCTCCGGAGTCACCTAGTGCAG”, the binding signal was 8950 fluorescence intensity (a.u.). With “TATCTGCACACAGATCATCACCATACTTGCATCTGTCGTTCGGAGTCACCTAGTGCAG”, the binding signal is 8860 fluorescence intensity (a.u.). For “AAGTTAACTTTGGATCCAAACTTCTAACTTTTTCTATCATCGGAGTCACCTAGTGCAG”, the binding signal was 8250 fluorescence intensity (a.u.). Turning to “TCCCTAGCCTAGCCCAATTCAGCATAATACCTCCCGTAGTCGGAGTCACCTAGTGCAG”, the binding signal is 8860 fluorescence intensity (a.u.). For the sequence “TCCTTCTCGTCTCATCCCGTCGACCCGCCGCCGCCTCAATCGGAGTCACCTAGTGCAG”, the binding signal is 11800 fluorescence intensity (a.u.). Turning to “ACTCTACTGCTGTCCCGAGCCTGTGGATCCAAATCCAACGCGGAGTCACCTAGTGCAG”, the binding signal is 8460 fluorescence intensity (a.u.).

In the case of “TTAGGCCCATTTATAATTTGCTAGTTCGCTGCCAGCCACCCGGAGTCACCTAGTGCAG”, the binding signal was 8490 fluorescence intensity (a.u.).

With “TAGCTTACCAGTTGTAGTACGTTCCACACTTCCAGCGATGCGGAGTCACCTAGTGCAG”, the binding signal is 9730 fluorescence intensity (a.u.).

On to “AGATGTGAAGAGATCCTCATAGAACTTTCCGGCCAATTTTCGGAGTCACCTAGTGCAG”, for which the binding signal is 8090 fluorescence intensity (a.u.). For “ACATACTCCCTACTTCCCTAAATGTTTAATGCCGTTGATTCGGAGTCACCTAGTGCAG”, the binding signal is 8460 fluorescence intensity (a.u.).

Turning to “TATTTATAGTGTCTGAGTATAGAACTTCGCTTCTCCTTTCCGGAGTCACCTAGTGCAG”, the binding signal was 8190 fluorescence intensity (a.u.). Then “GTAAATTGACACGATAACTGATAGATAGTACTCTTTTTTACGGAGTCACCTAGTGCAG”, with 8160 fluorescence intensity (a.u.); and “ACACGTTTTGGATTCGAATTCAGGCCTCTTGACAGCATCACGGAGTCACCTAGTGCAG”, with 9450 fluorescence intensity (a.u.); and “ATATATATATATATATATATGGTTTTGCGGTTCGAGCACGCGGAGTCACCTAGTGCAG”, with 9780 fluorescence intensity (a.u.).

Consider “AACAGCTTCCTGTCGATGGTTGGTAAATTGTAAAATGATTCGGAGTCACCTAGTGCAG”, for which the binding signal was 8820 fluorescence intensity (a.u.). Turning to “TGATAGTGGTGGGGTGGTATTGGTCCTAGCTTTGTACTCCCGGAGTCACCTAGTGCAG”, the binding signal is 18700 fluorescence intensity (a.u.). For “AAGATAGATGCCACTAATTTTTACACTGTATTTTGTAACTCGGAGTCACCTAGTGCAG”, the binding signal is 8290 fluorescence intensity (a.u.). Turning to “TATTATGAAATAAGTTGCTATTTTGTGGTTGAGGGGTACGCGGAGTCACCTAGTGCAG”, the binding signal is 8480 fluorescence intensity (a.u.).
